PubChem BioAssay AID652272 – Drosophila RNAi Screening Center | 2013

Screen: 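Finding fly genes that regulate Hedgehog signal transduction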 (primary screen)
Cells: Drosophila clone 8 (Cl8) cells
Knock-down reagent: long dsRNA against Drosophila genes
Detection: 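Firefly light from a Hedgehog-responsive ptc promoter reporter and Renilla reference light, both read on a plate reader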
Direction: firefly Hh reporter signal: higher = more ptc reporter light; Renilla reference signal: higher = more Renilla control light
Call rule: 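Hit when the z-score averaged over two replicates is under -2 or over +3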
Meaning of the calls: active = hit: reporter lowered or raised; inactive = not a hit
In all, the deposit lists about 21,000 reagents; shown is an unselected part of those that have a named target and a result. Of all reagents, 503 (2.4%) were called active. 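Raw plate light values, not normalised; calls rest on replicate z-scores that were not deposited; hits include reporter decreases as well as increases.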 A number with no mark means an inactive call. Names joined by + are all predicted targets of the reagent. Not given: the amount of reagent, the time to read-out.

gene	PubChem SID	firefly Hh reporter signal, replicate 1	firefly Hh reporter signal, replicate 2	firefly Hh reporter signal, replicate 3	Renilla reference signal, replicate 1	Renilla reference signal, replicate 2
CG31683 + CG18858	SID104182495	1.12e5	63368		2960	5992
Cyp9c1	SID104184399	96720	47094		3896	1861
tio	SID104183531	83484	54346		2288	4109
snRNA:U4atac	SID104191847	2.01e5			4501	
CG12502	SID104188073	62595	45667		2027	3600
CG2209	SID104199635	78804	2.94e5		2048	9984
CG1695	SID104200330	87716	2.70e5		2055	11122
CG32241	SID104187892	6.06e5	1.63e5	1.43e5	5812	4804
Cyp4e2	SID104187163	71779	39197		2853	1941
Cyp4p2	SID104187165	56330	78064		2784	2688
Sh	SID104199006	2.51e5 (active)	41056		17377	1712
Sh	SID104199012	7.86e5	3.04e5		49555	7541
Sh	SID104199577	1.15e5	2.15e5		4298	7851
Sh	SID104199847	82240	3.17e5		3056	13077
ebd2	SID104191474	89392	87452		3627	2412
Bbd	SID104186501	95559	36726		2642	1909
Zasp66	SID104188724	83477	1.79e5		2440	7720
Zasp66	SID104190423	1.12e5	81185		4457	3364
Zasp66	SID104190424	58700	64198		5741	4788
CG42808	SID104186162	1.11e5	58884		4313	2786
CG31446	SID104192903	1137	1.96e5		242	4664
Bhmt	SID104181871	49257	29869		1368	3254
CG17118	SID104182371	1.20e5	43044		3008	3629
CG33309	SID104181213	97456	2.26e5		2775	9696
asun	SID104196525	96448	84058		4778	3696
CG32225	SID104189449	1.98e5			3979	
CG8534	SID104196231	1.75e5	2.16e5		3898	6193
SLIRP2	SID104196155	1.14e5	1.11e5		4530	2860
awd	SID104196698	86604	1.86e5		3428	8293
Tnpo-SR	SID104180338	1.07e5	73149		4667	3445
CG30060	SID104185211	1.22e5	2.15e5		3080	9090
CG15561	SID104194892	1.78e5	1.94e5		5658	6028
eEF1delta	SID104182582	32380 (active)	25033		2502	1512
IntS4	SID104197602	83240	92317		2336	2769
CG1105	SID104192320	89274	79152		4016	2743
CG12279	SID104194287	1.48e5	1.59e5		4743	4570
l(2)k05911	SID104182315	5.04e5	87136		3688	3688
CG6125	SID104195762	69740	97405		2498	2770
Orct2	SID104194405	82346	67762		3617	3005
CG5506	SID104190303	1.05e5			4596	2881
HDAC11	SID104194072	3.93e5	85671		18918	2621
CG30105	SID104185460	91926	2.44e5		1946	9242
CG14982	SID104188232	60150	26099		1648	1896
Cp110	SID104200422	1.48e5	1.21e5		3658	3138
CG42568 + DnaJ-60	SID104183999	80027	37132		2161	4432
CG42568 + DnaJ-60	SID104184403	1.30e5	78781		5063	3432
Ude	SID104195116	1.09e5	69261		4365	3057
Diedel3	SID104199336	58869	2.26e5		1825	10520
CG3119	SID104180361	1.16e5	82036		2475	2246
E(spl)m2-BFM	SID104196783	2.82e5	42576		18520	1568
CG15024	SID104188270	78906	70353		7508	5812
Cyp4p1	SID104187164	93620	82049		2016	7220
CG3225	SID104180370	99052	85555		4263	3376
Cubn2	SID104190353	68994	80310	63056	8604	5348
foi	SID104190511	58684	50918		7607	3306
pygo	SID104194114	1.40e5	86611		2906	3015
CG40486	SID104200411	1.33e5	81734		2849	2075
Atg8b	SID104194293	5.21e5	95401		20812	2472
tomboy40	SID104184710	1.48e5	89561		5600	3698
Syx8	SID104190194	5.66e5	1.83e5	82386	7432	2212
Osi3	SID104191967	97697	96832		3896	2628
bs	SID104184468	2.65e5 (active)	1.32e5	90973	18793	3808
CG3345	SID104180388	53520	61649		2453	2880
Fbp2	SID104183119	67160	58737		3067	2227
lncRNA:CR40629	SID104200751	6.02e5	2.03e5		28865	3464
HLH3B	SID104198461	51282	1.69e5		1081	6967
st	SID104191191	74790	36231		3117	1628
CG1172	SID104191974	1.08e5	2.25e5		4024	6453
bor	SID104196707	65495	85297		2052	2115
CG7365	SID104190616	1.31e5	84112		4422	2563
CG17177	SID104190049	1.50e5			3723	4277
PpD6	SID104180566	1.34e5	54688		3385	5914
CG32409	SID104188572	6.71e5	1.44e5	1.24e5	6028	3883
